Consider three sequences from PMC9578197.

For at least one entry, the source does not settle the construct or the ends of the probe. For part of these data: Negatives hold for the conditions tested.

For data set [1], the system named is His-FfMYB15 (Flammulina filiformis). Nature of the data set: competition EMSA. The settings on record: Light Shift Chemiluminescent EMSA kit (Beyotime), pH and temperature not stated, recombinant protein, protein details: His (pCold I). (In general: In EMSA bound probe runs differently from free probe, usually more slowly.)
Data set [2] shares this test system. Nature of the data set: EMSA. The settings on record: Light Shift Chemiluminescent EMSA kit (Beyotime); pH and temperature not stated; recombinant protein; protein details: His (pCold I); label: 3' biotin.

“TTGCCACCTCAACTCCTCTAGCTCCAAAAAATCAGTTTCCTATCTCAAGGAAGTTT (double strand) [FfCEL6B mutant probe (CAACCA to AAAAAA), competitor]”: the binding result in data set [1] (excess mutant competitor vs N1, shift not eliminated) was “no binding”.
In the case of “TTGCCACCTCAACTCCTCTAGCTCCCAACCATCAGTTTCCTATCTCAAGGAAGTTT (double strand) [FfCEL6B promoter probe (56 bp, MYB motif), biotin-labeled]”, the binding result in data set [2] is on record as “binds”.
On to “TTGCCACCTCAACTCCTCTAGCTCCCAACCATCAGTTTCCTATCTCAAGGAAGTTT (double strand) [FfCEL6B promoter probe, unlabeled competitor]”, for which the binding result in data set [1] (excess cold competitor vs N1, shift abolished) is reported as “binds”.
